Measured values taken from patent publication US10645929B2, “Pyrimidine compound” (Sumitomo Chemical Company, Limited, priority 2015, dated 2020).
Some entries share one result that the patent states for a list of compounds. For at least one compound, name, drawing or mass did not settle the structure.

System: tobacco cutworm (Spodoptera litura)
Assay: Test Example 5: treated artificial diet, tobacco cutworm
Assay type: in vivo
Details: 500 ppm, 2 mL on artificial diet, 4th instar larvae, after 5 days

CCS(=O)(=O)c1cc(C(F)(F)F)ccc1-c1ncc(OCC(F)(F)C(F)C(F)(F)F)cn1 (racemic) [compound 2]
mortality of insects: ≥ 80%

CCS(=O)(=O)c1cc(C(F)(F)F)ccc1-c1ncc(OCC(F)(F)C(F)(F)F)cn1 [compound 1]
mortality of insects: ≥ 80%
